In all, about 320,000 compounds went through this assay and about 22,000 (6.9%) were called active. Inconclusive means that the source gave no clear call. Such entries were picked first, then a sample of the others. Calls come from the whole dose curve; as a rule, active = well fitted inhibition curve with a large enough effect; inconclusive = small, poorly fitted or top-dose-only effect, or another doubt; inactive = no such curve, though single readings can be large or run the other way. A potency beside an inconclusive call is a rough fit, not a confirmed value.
Experiment: Primary qHTS for delayed death inhibitors of the malarial parasite plastid, 96 hour incubation
Conditions: P. falciparum luciferase reporter growth; series mostly up to 28.7 µM; activity change, negative = inhibition: at the top concentration
How it was run: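 Erythrocytes infected with luciferase-expressing P. falciparum were dispensed at 2% hematocrit and 0.05% parasitemia (final), then incubated with compounds 96 hours at 37 C in 5% CO2. Luminescence after detection reagent addition reported growth.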
% is set by controls: 0 for no effect and ±100 for the full control effect; potency is the fitted concentration of half-maximal effect.

SMILES | Potency | activity change, negative = inhibition
Cc1ccc(C(=O)N2CCC3(CC2)Oc2ccc(F)cc2C(=O)C32CC(c3cccnc3)=NO2)s1 (configuration not stated) | active: 13.1 µM | 
CCc1cccc(C)c1NC(=O)CC1Oc2ccc(C)cc2NC1=O (configuration not stated) | inconclusive: 9.28 µM [inhibitor, single point] | 
COc1ccc2c(c1)c1c(n2C(C)=O)C(OC(C)=O)=NCC1 | inconclusive: 10.4 µM [inhibitor, partial curve, poor fit] | 
COC(=O)CC1C(=O)NCCN1C(=S)NC(=O)C(c1ccccc1)c1ccccc1 (configuration not stated) | inconclusive: 8.28 µM [inhibitor, partial curve] | 
CC(=O)c1ccc(NC(=O)C[n+]2ccc(N(C)C)cc2)cc1 | inconclusive: 18.5 µM [inhibitor, single point] | 
CC(C)(C)C(=O)N1CCN(c2ccc(NC(=O)c3ccco3)cc2)CC1 | inconclusive: 13.1 µM [inhibitor, single point] | 
O=C(NCCCn1ccnc1)c1cc(C(=O)C2CCCCC2)c[nH]1 | inconclusive: 8.28 µM [inhibitor, partial curve, poor fit] | 
Cc1cccc(C)c1NC(=O)c1cccn(Cc2ccc3c(c2)OC(F)(F)O3)c1=O | inconclusive: 18.5 µM [inhibitor, single point] | 
CCCC1=C(C(=O)OCC)C(c2ccncc2)n2ncnc2N1 (configuration not stated) | inconclusive: 18.5 µM [inhibitor, single point] | 
Cc1ccccc1C(=O)Nc1ccc(S(=O)(=O)N2CCCC2)cc1 |  | inactive: 3.06%
CN(Cc1ccccc1)S(=O)(=O)c1ccc(NC(=S)NC(=O)C2CCCC2)cc1 | inconclusive: 4.65 µM [inhibitor, partial curve, poor fit] | 
CCCn1c(CCc2ccccc2)n[nH]c1=S | inconclusive: 18.5 µM [inhibitor, single point] | 
Cc1cc(C(=O)Nc2ccccc2C)on1 |  | inactive: 37.5%
CN(C)c1ccc(/C=N\NC(=S)SCN2C(=O)C3CCC(C)(C2=O)C3(C)C)cc1 (configuration not stated) | inconclusive: 11.7 µM [inhibitor, single point] | 
CCCN(c1ccccc1F)S(=O)(=O)c1c[nH]c(C(=O)OC)c1 | inconclusive: 18.5 µM [inhibitor, single point] | 
C=CCN1CCN(C(CCC)c2nnnn2Cc2ccco2)CC1 (configuration not stated) | inconclusive: 6.57 µM [inhibitor, partial curve, poor fit] | 
COC(=O)c1ccc(CNC(=O)/C=C/c2cc([N+](=O)[O-])ccc2OC(F)F)cc1 |  | inactive: 37.7%
O=C1CCCC2=C1C(c1cccs1)n1nc(SCc3ccccc3)nc1N2 (configuration not stated) | inconclusive: 5.86 µM [inhibitor, partial curve] | 
CCNC(=O)CN(CCc1ccccc1)S(=O)(=O)c1ccc(OC)cc1 | inconclusive: 11.7 µM [inhibitor, partial curve, poor fit] | 
Cc1ccccc1NC(=O)CC1SCCNC1=O (configuration not stated) |  | inactive: 25.6%
O=C(Nc1ccc(Oc2ccccc2)cc1)C1CCN(c2ncccn2)CC1 |  | inactive: 14%

SMILES | Potency | activity change, negative = inhibition
CCN(CC)C(=O)Cn1cc(C(=O)C(=O)N2CCN(Cc3ccc4c(c3)OCO4)CC2)c2ccccc21 | inconclusive: 14.7 µM [inhibitor, partial curve, poor fit] | 
Cc1ccccc1Nc1nccc(N(C)C)c1C#N | inconclusive: 11.7 µM [inhibitor, single point] | 
CCOc1ccc(N2C(=O)S/C(=C\c3ccc(O)c(OCC)c3)C2=O)cc1 | inconclusive: 10.4 µM [inhibitor, single point] | 
O=C(Nc1ccc(Cl)cc1)C1CCCN(c2ncnc3c2nc2n3CCCCC2)C1 (configuration not stated) | inconclusive: 3.29 µM [inhibitor, single point] | 
O=C(N/N=C\c1c(O)ccc2ccccc12)c1ccc(Cn2cccn2)o1 | inconclusive: 18.5 µM [inhibitor, single point] | 
O=[N+]([O-])c1cc(C(F)(F)F)ccc1N1CCN(S(=O)(=O)c2ccc3ccccc3c2)CC1 |  | inactive: -33.4%
O=C(NCCN1CCOCC1)c1ccc(CS(=O)c2ccccc2Cl)o1 (configuration not stated) | inconclusive: 18.5 µM [inhibitor, single point] | 
Nc1nc(SCC(=O)NCCCN2CCOCC2)nc2sc3c(c12)CCC3 |  | inactive: 6.2%
CC(Oc1ccc(Br)cc1)C(=O)NCC1(N2CCCCC2)CCCCC1 (configuration not stated) | inconclusive: 13.1 µM [inhibitor, single point] | 
CCN(CC)c1nc2c3c(nc4c(c3c1C#N)CC(=O)N4c1ccc(Cl)cc1)NC(C)=N2 | active: 4.65 µM | 
COc1cccc(Cn2c(Oc3ccccc3)nc3c2c(=O)n(C)c(=O)n3C)c1 | inconclusive: 11.7 µM [inhibitor, single point] | 
COc1ccc(CCn2c(N3CCN(C)CC3)nc3c2c(=O)[nH]c(=O)n3C)cc1 |  | inactive: -24.3%
COc1cc(NC(=O)c2ccccc2)c(OC)cc1NC(=O)CN1C(=O)N(C)C2(CCCCC2)C1=O | inconclusive: 18.5 µM [inhibitor, single point] | 
O=S(=O)(NCCC1=CCCCC1)c1ccccc1Br | inconclusive: 3.29 µM [inhibitor, full curve] | 
O=C(c1ccc(F)cc1)c1ccc(N2CCCC2)cc1 | inconclusive: 1.47 µM [inhibitor, full curve] | 
Cc1ccc2nc3c(cc(C(=O)NCCc4ccccc4)c(=N)n3CC3CCCO3)c(=O)n2c1 (configuration not stated) | inconclusive: 6.57 µM [inhibitor, partial curve, poor fit] | 
CCOc1ccc(NC(=O)N2CCC(C(N)=O)(N3CCCCC3)CC2)cc1 | active: 13.1 µM | 
CC(C)(C)OC(=O)N[C@@H](C(=O)OC(C)(C)C)c1ccc2c(c1)OCO2 | inconclusive: 18.5 µM [inhibitor, single point] | 
COC(=O)c1cc(-c2ccc(S(=O)(=O)N3CCCC(C)C3)cc2)c(C(F)(F)F)s1 (configuration not stated) | inconclusive: 18.5 µM [inhibitor, single point] | 
COCCCNC(=S)N/N=C/c1ccccc1O | inconclusive: 0.415 µM [inhibitor, full curve, poor fit] | 
Cc1ccc(N)cc1CN1CCCC1=O | inconclusive: 8.28 µM [inhibitor, partial curve] | 

Given comma-delimited: part of the list above
SMILES,Potency,"activity change, negative = inhibition"
CCN(CC)C(=O)Cn1cc(C(=O)C(=O)N2CCN(Cc3ccc4c(c3)OCO4)CC2)c2ccccc21,"inconclusive: 14.7 µM [inhibitor, partial curve, poor fit]",
Cc1ccccc1Nc1nccc(N(C)C)c1C#N,"inconclusive: 11.7 µM [inhibitor, single point]",
CCOc1ccc(N2C(=O)S/C(=C\c3ccc(O)c(OCC)c3)C2=O)cc1,"inconclusive: 10.4 µM [inhibitor, single point]",
O=C(Nc1ccc(Cl)cc1)C1CCCN(c2ncnc3c2nc2n3CCCCC2)C1 (configuration not stated),"inconclusive: 3.29 µM [inhibitor, single point]",
O=C(N/N=C\c1c(O)ccc2ccccc12)c1ccc(Cn2cccn2)o1,"inconclusive: 18.5 µM [inhibitor, single point]",
O=[N+]([O-])c1cc(C(F)(F)F)ccc1N1CCN(S(=O)(=O)c2ccc3ccccc3c2)CC1,,inactive: -33.4%
O=C(NCCN1CCOCC1)c1ccc(CS(=O)c2ccccc2Cl)o1 (configuration not stated),"inconclusive: 18.5 µM [inhibitor, single point]",
Nc1nc(SCC(=O)NCCCN2CCOCC2)nc2sc3c(c12)CCC3,,inactive: 6.2%
CC(Oc1ccc(Br)cc1)C(=O)NCC1(N2CCCCC2)CCCCC1 (configuration not stated),"inconclusive: 13.1 µM [inhibitor, single point]",
CCN(CC)c1nc2c3c(nc4c(c3c1C#N)CC(=O)N4c1ccc(Cl)cc1)NC(C)=N2,active: 4.65 µM,

Reference: PubChem BioAssay AID504834 (National Center for Advancing Translational Sciences (NCATS), 2011)
